Measurements from PMC3716644.

biological target: T1, MEF2D-Flag (UniProt Q03413); test: EMSA; settings: 10 mM HEPES pH 7.9, 50 mM KCl, 2 mM MgCl2, 0.1 mM EDTA, 2 mM spermidine, 10% glycerol, 0.1 mg/ml BSA, 0.02% NP-40, 500 ng poly(dI-dC), 20 ug extract, ~1 ng probe; protein in a lysate after overexpression; label: 32P-dCTP (Klenow fill-in)
T1 sequence (looked up, limits assumed): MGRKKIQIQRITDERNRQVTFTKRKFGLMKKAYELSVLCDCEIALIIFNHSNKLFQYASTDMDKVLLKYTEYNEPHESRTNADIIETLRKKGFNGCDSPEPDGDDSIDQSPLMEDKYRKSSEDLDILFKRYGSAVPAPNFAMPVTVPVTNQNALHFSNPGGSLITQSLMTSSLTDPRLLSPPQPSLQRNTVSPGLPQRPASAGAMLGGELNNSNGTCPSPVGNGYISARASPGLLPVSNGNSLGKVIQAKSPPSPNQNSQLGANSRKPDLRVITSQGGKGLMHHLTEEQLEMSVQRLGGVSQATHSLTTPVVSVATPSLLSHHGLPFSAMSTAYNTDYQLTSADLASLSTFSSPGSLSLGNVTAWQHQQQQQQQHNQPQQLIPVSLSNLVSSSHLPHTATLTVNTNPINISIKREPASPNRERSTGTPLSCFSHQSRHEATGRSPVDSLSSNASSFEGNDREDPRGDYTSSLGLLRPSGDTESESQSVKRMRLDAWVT

**Q.** Does “AGCTCGCTCTAAAAATAACCCTGGATCC (double strand) [MCK]” bind?
**A.** binds

**Q.** Does “CACCAGATTATTATTATTTTAGAC (double strand) [IE1]” bind?
**A.** binds

**Q.** Does “CTGTATATTTATATCTATTTATTATAATGC (double strand) [DE]” bind?
**A.** binds

**Q.** Does “GCTCACTCCTATATAAAGTCAGGG (double strand) [PE]” bind?
**A.** binds more weakly

**Q.** Does “GTAGAGCTTTATATATAAAACTTATAC (double strand) [IE2]” bind?
**A.** binds

The exact form of at least one protein or probe is not confirmed. At least one result comes from cells or an extract, where the contact may be indirect. A weaker result is weaker than the reference pair of the same experiment. Where a protein sequence is shown, tags need not be part of it.
